Reference: PubChem BioAssay AID1347075 (National Center for Advancing Translational Sciences (NCATS), 2019)
The whole screen tested about 400,000 compounds, of which about 5,500 (1.4%) were called active. The inconclusive results got no clear call from the source; some entries with a clear call stand among them for comparison. Calls follow the shape of the dose curve; as a rule, active = well fitted cell-killing curve with a large enough effect; inconclusive = small, poorly fitted or top-dose-only effect, or effect the other way; inactive = flat fitted curve, though single readings scatter. Where the call is inconclusive, the potency comes from a doubtful curve fit.

Test: qHTS assay for MDR1-selective chemotherapeutics: Primary screen using the parental adenocarcinoma cell KB-3-1; also: nearly all actives have a fitted effect of over 60% in size
Conditions: KB-3-1 viability, CellTiter-Glo ATP luminescence, 72 h; activity change, negative = cytotoxic: at 46.1 µM (top of the series)
How it was run: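 KB-3-1 parental drug-naive adenocarcinoma cells in DMEM/10% FBS, incubated 72 h at 37 C with pin-transferred compounds across a concentration series. Viability by CellTiter-Glo luminescence; concentration-response curves fitted after normalization.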
% is scaled to controls: 0 for no effect and ±100 for the full control effect; potency is read from the fitted curve at half-maximal effect.

Row | SMILES | Potency | activity change, negative = cytotoxic
1 | CCOc1cc(NC(=O)CCl)c(OCC)cc1NC(C)=O | active: 18.4 µM | 
2 | COc1ccc(Br)cc1[C@H]1[C@H]2C=CC[C@@H](C)[C@@H]2C(=O)N1Cc1ccccc1 | inconclusive: 20.6 µM [cytotoxic, single point] | 
3 | CC1Cc2cc(S(=O)(=O)NCCc3ccccc3)ccc2N1C(=O)C1CC1 (centres undefined) |  | inactive: 2.9%
4 | O=S(=O)(Nc1ccc(Cl)c(C(F)(F)F)c1)c1cnc[nH]1 | inconclusive: 16.4 µM [rising, partial curve, poor fit] | 
5 | Cc1cc2c(cc1S(=O)(=O)N(C)CC(=O)Nc1cccc(C#N)c1)OCC(=O)N2 |  | inactive: -19.1%
6 | CC1(C(=O)O)CCCN(C(=O)c2cc3ccccc3s2)C1 (centres undefined) |  | inactive: 0%
7 | CC1=Nc2cc(C(=O)NC3CCCC3)ccc2Sc2ccc(Br)cc21 | inconclusive: 3.66 µM [cytotoxic, partial curve, poor fit] | 
8 | O=C1CC(N2CCN(Cc3ccc(Cl)cc3)CC2)C(=O)N1CCc1ccccc1 (centres undefined) |  | inactive: -13.9%
9 | CCO[C@@H]1OC(C(=O)N2CCOCC2)=C[C@H](c2ccc(Br)cc2)[C@H]1CCCO | inconclusive: 16.4 µM [cytotoxic, single point] | 
10 | Cc1ccc(C2CC(=O)C(C=NCCN3CCN(C(=S)Nc4ccccc4)CC3)=C(O)C2)cc1 (centres undefined) | inconclusive: 23.1 µM [rising, single point] | 
11 | Cc1ccc(S(=O)(=O)/C(=C/Cl)NC(=O)c2ccccc2)cc1 | active: 13 µM | 
12 | OC[C@@H]1CN(Cc2ccc(-c3ccccc3)cc2)C[C@H](n2cnc3c(NCc4ccncc4)ncnc32)O1 | inconclusive: 18.4 µM [cytotoxic, single point] | 
13 | CC(C)CSC1=NSC2=NC(=O)/C(=C\c3cccs3)C(=N)N12 | inconclusive: 18.4 µM [cytotoxic, single point] | 
14 | NC(=O)C1CCN(C(=O)/C=C/c2ccco2)CC1 |  | inactive: 0.0636%
15 | Cc1ccc(C(=O)Nc2ccc3c(c2)OCCO3)o1 |  | inactive: -22.2%
16 | CN(CCO)C(=O)c1nc[nH]c1C(=O)N(C)Cc1ccccc1 |  | inconclusive: -0.653%
17 | O=C(CSc1nc(-c2ccccc2)c(-c2ccccc2)o1)N1CCOCC1 | inconclusive: 29.1 µM [cytotoxic, single point] | 
18 | Clc1ccc(NNc2ccnc3cc(Cl)ccc23)cc1 | inconclusive: 10.3 µM [cytotoxic, partial curve] | 
19 | CCCCNC(=NCc1cccc(C(F)(F)F)c1)Nc1ccccc1 | inconclusive: 10.3 µM [cytotoxic, partial curve, poor fit] | 
20 | CN(Cc1nc(-c2ccc(Cl)cc2)no1)C(=O)c1ccc2c(c1)OCO2 |  | inactive: -3.11%
21 | Cc1ccc(CCNc2ncnc3onc(C)c23)cc1 | active: 2.91 µM | 
22 | COc1ccc(-c2n[nH]c(=S)n2/N=C/C=C\c2ccccc2OC)cc1 | inconclusive: 18.4 µM [cytotoxic, partial curve] | 
23 | C[C@@H]1CC[C@H](O)/C=C/C(=O)O[C@H](C)CC[C@H](O)/C=C/C(=O)O1 | inconclusive: 29.1 µM [cytotoxic, single point] | 

Row | SMILES | Potency | activity change, negative = cytotoxic
24 | O=C(Nc1nnc(-c2ccc3c(c2)OCCO3)o1)c1ccc(Cc2ccccc2)cc1 | inconclusive: 29.1 µM [cytotoxic, single point] | 
25 | OC(CSc1c(Cl)cccc1Cl)CN1CCN(c2ccccc2F)CC1 (centres undefined) | inconclusive: 16.4 µM [cytotoxic, single point] | 
26 | Cc1ccc(Cn2cc(CN3CC(N4CCN(Cc5ccccc5F)CC4)CS3(=O)=O)nn2)cc1 (centres undefined) | inconclusive: 16.4 µM [cytotoxic, partial curve, poor fit] | 
27 | COc1ccc(-c2cc(C(F)(F)F)c(C#N)c(SCC(=O)O)n2)cc1 |  | inconclusive: -7.62%
28 | CN(C)CCNc1ncnc2c1ncn2[C@H]1CN(Cc2ccc(-c3ccccc3)cc2)C[C@@H](CO)O1 | inconclusive: 29.1 µM [cytotoxic, single point] | 
29 | O=C(O)c1ccccc1C(=O)Nn1cnnc1 | inconclusive: 0.366 µM [rising, full curve] | 
30 | COc1ccc(Nc2c(C3CC3)nc3nc(C)cc(C)n23)cc1 | inconclusive: 20.6 µM [cytotoxic, single point] | 
31 | CN(C)c1ccc(CNC(=O)c2ccc(NC(=O)c3nsc4ccccc34)cc2)cc1 |  | inactive: 11.2%
32 | Cc1ccc(S(=O)(=O)CCC(=O)c2ccc(O)cc2O)cc1 | inconclusive: 29.1 µM [cytotoxic, single point] | 
33 | CC(=O)c1c(C)[nH]c(C(=O)COc2ccc3c(C)cc(=O)oc3c2)c1C | active: 14.6 µM | 
34 | O=C(CCC1CCCCC1)N1CCN(Cc2ccc3c(c2)OCO3)CC1 | inconclusive: 23.1 µM [cytotoxic, single point] | 
35 | Cc1cc(C(=O)NNc2ccc(C)c(C)c2)no1 | inconclusive: 32.6 µM [cytotoxic, single point] | 
36 | COc1ccc(/C=c2\s/c(=C(/C#N)C(=O)NCc3ccco3)n(-c3ccccc3)c2=O)cc1 |  | inconclusive: 2.42%
37 | CC(C)Oc1ccc(CCc2nnc(SCC(=O)O)n2-c2ccccc2)cc1 |  | inconclusive: 13%
38 | Cc1cc(C(=O)NCCCn2ccnc2)cs1 |  | inactive: 0.634%
39 | CCOc1cccc(-c2nn3c(-c4ccccn4)nnc3s2)c1 | inconclusive: 9.2 µM [rising, partial curve, poor fit] | 
40 | CCN(CC)C(=O)CSc1nnc2nnc3cc(OC)ccc3n12 | inconclusive: 9.2 µM [cytotoxic, partial curve, poor fit] | 
41 | CCOC(=O)Cn1c(-c2ccccc2)nc2ccccc2c1=O |  | inactive: -1.01%
42 | CC(NCc1ccccc1O)c1ccccc1 (centres undefined) |  | inactive: -1.55%
43 | C/C(=N/N=C/c1ccc(N(C)C)cc1)c1ccccc1 | inconclusive: 16.4 µM [cytotoxic, partial curve, poor fit] | 
44 | CC1(C(=O)NCc2cccc3ccccc23)CCN1Cc1ccc(-c2ccccc2)o1 (centres undefined) | inconclusive: 29.1 µM [cytotoxic, single point] | 
45 | CCOC(=O)Cn1c(=O)n(C2CCCCC2)c2nc(-c3ccccc3Cl)nc(C(N)=O)c21 | inconclusive: 25.9 µM [cytotoxic, single point] | 
46 | O=C(Cc1ccccc1)N/N=C/c1ccc2cccc(O)c2n1 |  | inactive: 5.77%

Row | SMILES | Potency | activity change, negative = cytotoxic
47 | O=C(CCn1cnc(-c2ccccc2)c1-c1ccccc1)N/N=C/c1ccc(O)cc1 | inconclusive: 23.1 µM [cytotoxic, single point] | 
48 | COc1ccc(-c2[nH]ncc2[C@@H]2C[C@H]3CN(Cc4ccccc4C)C(=O)[C@]34CCCN24)cc1 |  | inactive: -0.8%
49 | CC(C)(C)C1CCC2(CC1)C(C#N)=C(SCC(=O)NC1CCCCC1)NC(=O)C2C#N (centres undefined) | inconclusive: 18.4 µM [cytotoxic, single point] | 
50 | COc1ccc(-c2nc(S(=O)(=O)c3ccccc3)c(N3CCOCC3)o2)cc1 |  | inactive: 0.833%
51 | CCCN(CCC)CC(O)Cn1cc(/C=C/C(=O)c2ccccc2)c2ccccc21 (centres undefined) | inconclusive: 29.1 µM [cytotoxic, single point] | 
52 | N#CC1CCCc2c1[nH]c1ccc([N+](=O)[O-])cc21 (centres undefined) | inconclusive: 23.1 µM [cytotoxic, single point] | 
53 | O=C(CNC(=O)Cc1ccccc1)N=Nc1c(O)[nH]c2ccccc12 | inconclusive: 0.146 µM [rising, full curve, poor fit] | 
54 | CCCCCCC[n+]1ccc(/C=C/c2c(C)[nH]c3ccccc23)c2ccccc21 | active: 8.2 µM | 
55 | Cc1ccc2c(c1)c1c3n2CCN(C(=O)CN2CCN(C)CC2)C3CCC1 (centres undefined) | inconclusive: 29.1 µM [cytotoxic, single point] | 
56 | Cc1ccc(-n2c(SCC(=O)c3c(N)n(C)c(=O)n(C)c3=O)nc3sc4c(c3c2=O)CCCC4)c(C)c1 | inconclusive: 29.1 µM [cytotoxic, single point] | 
57 | CC(CC(=O)Nc1nnc(CC(C)(C)C)s1)c1ccccc1 (centres undefined) |  | inactive: -0.947%
58 | CCOC(=O)N1CCN(C(=O)C(CC)c2ccccc2)CC1 (centres undefined) |  | inactive: 0.961%
59 | Cc1ccc(N2CCN(S(=O)(=O)N3CCCCCC3)CC2)cc1Cl | inconclusive: 20.6 µM [cytotoxic, partial curve, poor fit] | 
60 | COc1ccc(CCNC(=O)CCCCCn2c(SCC(N)=O)nc3cc4c(cc3c2=O)OCO4)cc1OC | inconclusive: 11.6 µM [cytotoxic, partial curve, poor fit] | 
61 | CN(C)CCCN1C(=O)c2cccc3c([N+](=O)[O-])ccc(c23)C1=O | active: 23.1 µM | 
62 | COC(=O)C1=C(C(=O)OC)[C@@H]2N(Cc3ccccc3)c3ccccc3[C@@]23C[C@@H](C(=O)OC)N(S(=O)(=O)c2ccc(C(F)(F)F)cc2)C3=N1 |  | inconclusive: 40.6%
63 | Cc1cccc(NC(=O)c2ccc3c(c2)C(=O)N(c2ccccc2C)C3=O)n1 | inconclusive: 29.1 µM [cytotoxic, single point] | 
64 | Cc1ccc(CNC(=O)Cn2cnc3c(NCc4ccccc4)ncnc32)o1 | inconclusive: 29.1 µM [cytotoxic, single point] | 
65 | COc1ccc(-n2c(-c3cnccn3)n[nH]c2=S)cc1 |  | inactive: -8.44%
66 | Cc1ccc(CNCc2c(C(=O)O)c(C)n(Cc3ccc(C)cc3)c2C)cc1 |  | inactive: 1.73%
67 | COc1ccc(NC(=O)N(Cc2nnc3n2CCCCC3)c2ccc(OC)c(Cl)c2)cc1 | inconclusive: 4.61 µM [rising, full curve, poor fit] | 
68 | Cc1ccc(C(=O)NNC(=O)CNc2cccc(Cl)c2)cc1 |  | inactive: -11%
69 | COc1ccc2c(c1)C=C([C@@H]1C[C@H]3CN(c4ccccc4)C(=O)[C@]34CCCN14)CO2 | inconclusive: 20.6 µM [cytotoxic, partial curve, poor fit] | 

Some of the entries so far, field by field.
Cc1ccc2c(c1)c1c3n2CCN(C(=O)CN2CCN(C)CC2)C3CCC1 (centres undefined)
  Potency: inconclusive: 29.1 µM [cytotoxic, single point]
Cc1ccc(-n2c(SCC(=O)c3c(N)n(C)c(=O)n(C)c3=O)nc3sc4c(c3c2=O)CCCC4)c(C)c1
  Potency: inconclusive: 29.1 µM [cytotoxic, single point]
CC(CC(=O)Nc1nnc(CC(C)(C)C)s1)c1ccccc1 (centres undefined)
  activity change, negative = cytotoxic: inactive: -0.947%
